Experimental data from paper PMC7862700.
This is a selection; strong and weak results do not stand in their true shares. At the low end of the ranking the order means little.

Chains of the proteins cited; added tags and fusions are not shown. Lines headed by an entry give the natural chain unless they say otherwise; changes in a name come on top.
UniProt Q9Y603: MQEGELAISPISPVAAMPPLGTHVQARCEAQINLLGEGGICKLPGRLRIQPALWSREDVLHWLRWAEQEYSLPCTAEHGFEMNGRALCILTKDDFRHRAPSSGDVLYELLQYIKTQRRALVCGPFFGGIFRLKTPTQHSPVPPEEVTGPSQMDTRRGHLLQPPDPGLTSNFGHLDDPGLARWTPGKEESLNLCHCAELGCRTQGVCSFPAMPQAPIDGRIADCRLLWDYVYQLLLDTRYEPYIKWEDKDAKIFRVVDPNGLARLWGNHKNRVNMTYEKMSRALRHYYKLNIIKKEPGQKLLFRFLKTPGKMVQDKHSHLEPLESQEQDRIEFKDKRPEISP
UniProt P41212: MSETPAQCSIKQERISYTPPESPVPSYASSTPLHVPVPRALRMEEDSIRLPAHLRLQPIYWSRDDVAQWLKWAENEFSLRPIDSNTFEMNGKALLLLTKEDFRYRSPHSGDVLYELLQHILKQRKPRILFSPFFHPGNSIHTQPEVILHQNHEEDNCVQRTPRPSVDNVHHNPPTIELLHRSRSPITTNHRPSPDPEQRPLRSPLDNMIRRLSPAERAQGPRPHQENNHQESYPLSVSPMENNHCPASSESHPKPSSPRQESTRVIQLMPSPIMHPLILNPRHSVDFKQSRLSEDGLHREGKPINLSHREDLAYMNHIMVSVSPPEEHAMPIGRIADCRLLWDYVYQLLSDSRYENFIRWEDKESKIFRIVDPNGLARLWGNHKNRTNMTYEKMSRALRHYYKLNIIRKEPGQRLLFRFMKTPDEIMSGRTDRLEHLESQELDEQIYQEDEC

Columns and labels:
Assay in all cases: DAPPL (digital affinity profiling via proximity ligation, sequencing)
Conditions in all cases: 10 mM Tris-HCl pH 7.5, 50 mM NaCl, 1 mM DTT, 4% glycerol, room temperature, 30 min; GST-TFs on glutathione beads, 16-mer random dsDNA library, 0.1% …; high values mean tight binding; double strand, one strand shown; scale: fold enrichment (6-mer frequency, TF over GST control)
[1] = biological target: T1, ELF3 (UniProt P78545)
T1 sequence: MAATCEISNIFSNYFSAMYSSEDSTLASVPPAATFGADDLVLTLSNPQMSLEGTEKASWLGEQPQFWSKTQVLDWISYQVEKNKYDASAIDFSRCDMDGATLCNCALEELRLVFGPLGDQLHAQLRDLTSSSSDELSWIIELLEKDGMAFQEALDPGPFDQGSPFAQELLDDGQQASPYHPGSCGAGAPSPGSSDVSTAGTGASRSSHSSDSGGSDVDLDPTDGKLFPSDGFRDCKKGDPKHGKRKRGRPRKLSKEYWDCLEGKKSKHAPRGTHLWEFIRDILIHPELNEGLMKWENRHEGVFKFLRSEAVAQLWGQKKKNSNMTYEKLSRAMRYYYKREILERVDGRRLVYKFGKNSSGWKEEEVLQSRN

[2] = biological target: ETV7 (UniProt Q9Y603)
[3] = biological target: ETV6 (UniProt P41212)

Row | Sequence | binding signal [1] | binding signal [2] | binding signal [3]
1 | GTCCAG | 0.562 | 0.611 | 0.698
2 | CGGGGT | 0.562 | 0.718 | 0.611
3 | AAGGAC | 0.892 | 0.912 | 0.851
4 | CCGTGA | 0.175 | 0.205 | 0.175
5 | CACCGT | 0.577 | 0.65 | 0.65
6 | TGGAGA | 0.395 | 0.454 | 0.443
7 | CGAGCC | 0.809 | 0.857 | 0.899
8 | AGAGCC | 0.815 | 0.674 | 0.729
9 | GACAGT | 0.432 | 0.502 | 0.43
10 | GCAAGT | 0.834 | 0.835 | 0.77
11 | GCAAGA | 0.875 | 0.851 | 0.731
12 | GAGGCA | 0.485 | 0.499 | 0.444
13 | CGGGGC | 0.482 | 0.663 | 0.599
14 | CCGAGG | 0.803 | 0.788 | 0.745
15 | GAGAGC | 0.397 | 0.428 | 0.395
16 | CGTGAA | 0.474 | 0.431 | 0.428
17 | GAGCGA | 0.642 | 0.687 | 0.603
18 | AACGAG | 0.88 | 0.825 | 0.782
19 | GTCATG | 0.835 | 0.855 | 0.852
20 | GTGAGC | 0.448 | 0.415 | 0.378

3 entries picked at random from the list so far, as already listed:
Row | Sequence | binding signal [1] | binding signal [2] | binding signal [3]
2 | CGGGGT | 0.562 | 0.718 | 0.611
14 | CCGAGG | 0.803 | 0.788 | 0.745
18 | AACGAG | 0.88 | 0.825 | 0.782

Further entries:

Row | Sequence | binding signal [1] | binding signal [2] | binding signal [3]
21 | GGTGTG | 0.69 | 0.693 | 0.729
22 | TAGGGG | 0.903 | 0.991 | 0.875
23 | GTCAGT | 0.577 | 0.69 | 0.643
24 | AGGTTG | 0.824 | 0.808 | 0.733
25 | TGAGGA | 0.761 | 0.661 | 0.715
26 | GTGCGA | 0.779 | 0.958 | 0.862
27 | CGTGGG | 0.39 | 0.395 | 0.39
28 | AGACGG | 0.379 | 0.385 | 0.384
29 | ACGAGG | 0.692 | 0.775 | 0.766
30 | GCGGTA | 0.688 | 0.742 | 0.754
31 | GGAGGT | 0.3 | 0.417 | 0.324
32 | AAGGCG | 0.681 | 0.67 | 0.638
33 | GCCCGT | 0.618 | 0.704 | 0.669
34 | GTAGTG | 0.728 | 0.881 | 0.805
35 | CATGAG | 0.699 | 0.644 | 0.632
36 | AGGCCG | 0.476 | 0.507 | 0.488
37 | GGGCGG | 0.459 | 0.534 | 0.445
38 | GCAGAG | 0.697 | 0.716 | 0.633
39 | CCGGGC | 0.792 | 0.914 | 0.885
40 | CCGAGA | 0.554 | 0.684 | 0.599

Row | Sequence | binding signal [1] | binding signal [2] | binding signal [3]
41 | CGCCAG | 0.723 | 0.637 | 0.688
42 | CAAGTC | 0.859 | 0.851 | 0.844
43 | GTAGGT | 0.812 | 0.716 | 0.851
44 | GGCGAT | 0.8 | 0.771 | 0.81
45 | GTCGGT | 0.268 | 0.351 | 0.283
46 | TCGGGA | 0.441 | 0.392 | 0.352
47 | CATGTG | 0.733 | 0.842 | 0.821
48 | AGACAC | 0.714 | 0.823 | 0.781
49 | CACCAG | 0.829 | 0.734 | 0.722
50 | GTCGAG | 0.448 | 0.502 | 0.405
51 | GGGTAC | 0.942 | 1 | 0.947
52 | GTCGCG | 0.673 | 0.75 | 0.68
53 | AGGAGC | 0.394 | 0.425 | 0.413
54 | CGGAGG | 0.291 | 0.296 | 0.266
55 | AGTTGA | 0.775 | 0.727 | 0.878
56 | TGTCGT | 0.796 | 0.947 | 0.847
57 | TGAGTA | 0.384 | 0.508 | 0.445
58 | GAGGGC | 0.672 | 0.636 | 0.655
59 | CAGTCC | 0.625 | 0.671 | 0.578
60 | GTAGGA | 0.527 | 0.613 | 0.68
